Assay results from patent US20250084063A1 (Incyte Corporation, priority 2023, published 2025).

Sequences of proteins named here, by UniProt entry; tags and fusion partners are left off.
UniProt Q96LB1, whole entry: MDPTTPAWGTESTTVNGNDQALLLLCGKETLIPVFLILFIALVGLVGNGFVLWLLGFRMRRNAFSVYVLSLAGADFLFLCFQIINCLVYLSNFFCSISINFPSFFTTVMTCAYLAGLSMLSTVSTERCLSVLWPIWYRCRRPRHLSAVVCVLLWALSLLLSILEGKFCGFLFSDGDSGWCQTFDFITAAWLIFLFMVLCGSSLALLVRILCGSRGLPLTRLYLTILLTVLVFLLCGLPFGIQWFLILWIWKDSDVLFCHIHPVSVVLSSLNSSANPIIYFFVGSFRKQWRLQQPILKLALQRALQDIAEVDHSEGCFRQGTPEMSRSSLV

Biological target: MRGPRX2 (Homo sapiens, UniProt Q96LB1)
Test: MRGPRX2 β-Arrestin assay
Settings: read-out: MRGPRX2 β-Arrestin; PathHunter CHO-K1 MRGPRX2 β-Arrestin cell line; agonist Cortistatin 14 0.25 μM
Text: Example C: MRGPRX2 β-Arrestin Assay
This assay measures compound inhibition of β-Arrestin recruitment, which is part of the G protein-independent pathway that results from the ligand-activated GPCR phosphorylation by specific GPCR kinases. The PathHunter CHO-K1 MRPGRX2 B-Arrestin Cell line stably expressing ProLink tagged MRGPRX2 and Enzyme Acceptor Tagged B-Arrestin was purchased from Eurofins DiscoverX, (Fremont, CA).
The cells were maintained in culture medium from the Europhins DiscoverX Cell Culture Kit-107 which includes FBS, hygromycin B and G418. For the assay, the cells were harvested and were resuspended with Cell Plating Reagent 2 (Eurofins DiscoverX). Cells were added 10000 cells in 25 µL/well to a 384-well black cell culture plate (Greiner VWR, Radnor, PA) which contained 125 nL/well of compound at a selected serially diluted concentration range or DMSO. The plate was incubated at 37° C. with 5% CO2 for 1 h. 2 μL/well of agonist Cortistatin 14 was diluted in Protein Dilution Buffer, (Eurofins DiscoverX) for a final concentration of 0.25 μM, was added and the plate was incubated at 37° C. with 5% CO2 for 90 min. […] Plates were read on the PHERAstar microplate reader (BMG Labtech Cary, NC) measuring luminescence 0.1 to 1 second per well. […]

IC50: 0.1 to 100 nM
Compound: [2H]C([2H])([2H])NC(=O)N1CC(CNc2cc(C(F)(F)F)nc3ccc(Cl)cc23)(n2cc(C(F)F)cn2)C1

The match of structure and compound is tentative.
